The list is a part of this screen's results and no random one: it is rich in T/C values a quarter to a half above the control, in often repeated tests (any T/C) and in doses without a T/C. Further doses and runs are listed elsewhere. T/C gives the treated animals as a percentage of the vehicle group. Some doses have a count of surviving animals in place of a T/C: the source files T/C as zero there, which appears to mark a toxic dose or a test without result, not a measured value. Some doses without a T/C left all or most animals alive at the check, yet need not have been tolerated: the source hardly ever lists a survival T/C far under the control, and the zero likely stands for such cases as well. Survivors were counted at the toxicity check, usually on the fifth day, unless a day is given; later deaths do not show. Schedules are NCI's codes, taken here to give the interval after Q, in days (D) or hours (H), and the number of doses after X. Some doses were run more than once; the values are given in rising order. For survival time, the PubChem record calls one and a half times the control and up active, and a quarter to a half above the control has no call in these data; cut-offs in other NCI protocols can differ.

The test deals with CD2F1 mice, L1210 leukemia ip, survival T/C. Briefly: NCI In Vivo Anticancer Drug Screen. Data for tumor model L1210 Leukemia (intraperitoneal) in CD2F1 (CDF1) mice. The conditions noted are these: higher T/C = longer survival. The essentials:
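In this screen, transplantable tumors were grown in mice given either the compound or its vehicle. Results were expressed as the treated measurement relative to the control measurement.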

Where [1] appears, read: T/C endpoint: mean survival time, dose: 100.0 mg/kg/injection, schedule: Q04DX003 (ip), vehicle: saline with Tween-80.
Where [2] appears, read: T/C endpoint: mean survival time, dose: 200.0 mg/kg/injection, schedule: Q04DX003 (ip), vehicle: saline with Tween-80.
Setting [3] is: T/C endpoint: mean survival time, dose: 400.0 mg/kg/injection, schedule: Q04DX003 (ip), vehicle: saline with Tween-80.
Setting [4] is: T/C endpoint: mean survival time, dose: 400.0 mg/kg/injection, schedule: Q04DX002 (ip), vehicle: saline with Tween-80.
The mark [5] stands for this setting: T/C endpoint: mean survival time, dose: 400.0 mg/kg/injection, schedule: Q01DX001 (ip), vehicle: saline with Tween-80.
[6] abbreviates: T/C endpoint: mean survival time, dose: 50.0 mg/kg/injection, schedule: Q01DX009 (ip), vehicle: other.
The mark [7] stands for this setting: T/C endpoint: mean survival time, dose: 100.0 mg/kg/injection, schedule: Q01DX009 (ip), vehicle: other.
Setting [8] is: T/C endpoint: mean survival time, dose: 200.0 mg/kg/injection, schedule: Q01DX009 (ip), vehicle: other.

Regarding `NC(=O)CC(N)C(=O)O.[Cl-].[Cl-].[Cl-].[Cl-].[Pt+2]` (configuration not stated), the survivor count is on record as 6 of 6 (T/C endpoint: mean survival time, dose: 12.5 mg/kg/injection, schedule: Q01DX009 (ip), vehicle: water); 1 of 6 (T/C endpoint: mean survival time, dose: 25.0 mg/kg/injection, schedule: Q01DX009 (ip), vehicle: water); 2 of 6 (T/C endpoint: mean survival time, dose: 50.0 mg/kg/injection, schedule: Q01DX009 (ip), vehicle: water); 0 of 6 (T/C endpoint: mean survival time, dose: 100.0 mg/kg/injection, schedule: Q01DX009 (ip), vehicle: water); 0 of 6 (T/C endpoint: mean survival time, dose: 200.0 mg/kg/injection, schedule: Q01DX009 (ip), vehicle: water).
Take `COc1cc2c(cc1OC)C1CCN3C(=O)CCC3[N+]1(C)CC2` (configuration not stated): the survivor count is, setting by setting: (T/C endpoint: mean survival time, dose: 200.0 mg/kg/injection, schedule: Q01DX009 (ip), vehicle: saline) 6 of 6; (T/C endpoint: mean survival time, dose: 400.0 mg/kg/injection, schedule: Q04DX003 (ip), vehicle: saline) 3 of 6.
In the case of `O=C1C=C(O)c2ccccc2C1=O`, the survivor count under setting [1] is on record as 0 of 3, the survivor count under setting [2] is 3 of 3 and the survivor count under setting [3] is listed as 0 of 3.
In the case of `Nc1ccc(N2CCNCC2)cc1`, the survivor count under setting [3] was 5 of 6.
Regarding `CC(CCOc1ccc(Cl)cc1Cl)C(=O)O` (configuration not stated), the survivor count under setting [4] was 0 of 3.
Take `CC(=O)Oc1ccc(Nc2c3ccccc3nc3ccccc23)cc1`: the T/C was 135 and 141 % of control (T/C endpoint: mean survival time, dose: 29.3 mg/kg/injection, schedule: Q01DX009 (ip), vehicle: saline with Tween-80); 129 % of control (T/C endpoint: mean survival time, dose: 44.0 mg/kg/injection, schedule: Q01DX009 (ip), vehicle: saline with Tween-80); 135 % of control (T/C endpoint: mean survival time, dose: 66.0 mg/kg/injection, schedule: Q01DX009 (ip), vehicle: saline with Tween-80). For the same molecule, the survivor count (T/C endpoint: mean survival time, dose: 100.0 mg/kg/injection, schedule: Q01DX009 (ip), vehicle: saline with Tween-80) was 1 of 6; the survivor count (T/C endpoint: mean survival time, dose: 150.0 mg/kg/injection, schedule: Q01DX001 (ip), vehicle: saline with Tween-80) was 1 of 10; the survivor count (T/C endpoint: mean survival time, dose: 150.0 mg/kg/injection, schedule: Q01DX009 (ip), vehicle: saline with Tween-80) is 0 of 6 and 7 of 10; the survivor count (T/C endpoint: mean survival time, dose: 200.0 mg/kg/injection, schedule: Q04DX002 (ip), vehicle: saline with Tween-80) is 2 of 3; the survivor count (T/C endpoint: mean survival time, dose: 225.0 mg/kg/injection, schedule: Q01DX001 (ip), vehicle: saline with Tween-80) is 5 of 10; the survivor count under setting [4] is given as 0 of 3.
Regarding `CC(C)(C)CC(C)(C)NCC(O)COc1ccc(C(C)(C)c2ccc(OCC(O)CNC(C)(C)CC(C)(C)C)cc2)cc1` (configuration not stated), the survivor count by setting is: (T/C endpoint: mean survival time, dose: 25.0 mg/kg/injection, schedule: Q01DX009 (ip), vehicle: Klucel (hydroxypropylcellulose) (HPC)) 5 of 6; (T/C endpoint: mean survival time, dose: 100.0 mg/kg/injection, schedule: Q01DX001 (ip), vehicle: saline with Tween-80) 0 of 6; (T/C endpoint: mean survival time, dose: 200.0 mg/kg/injection, schedule: Q01DX001 (ip), vehicle: saline with Tween-80) 0 of 6; under setting [5], 0 of 6.
On to `COC(=O)c1ccccc1NC(=O)/C=C/C(=O)O`, for which the survivor count under setting [3] is 0 of 6.
As for `Cc1[nH]nc2c1CCCC2`, the survivor count (T/C endpoint: mean survival time, dose: 400.0 mg/kg/injection, schedule: Q01DX009 (ip), vehicle: other) was 0 of 6.
Take `C=CN1CCCC1=O`: the survivor count (T/C endpoint: median survival time, dose: 7.5 grams/kg/injection, schedule: Q03HX016 (ip), vehicle: saline) was 4 of 10 and the survivor count (T/C endpoint: median survival time, dose: 7.5 grams/kg/injection, schedule: Q03HX024 (ip), vehicle: saline) is recorded as 5 of 10.
As for `[N-]=[N+]=NC1=C(c2ccccc2)C(=O)C=C(c2ccccc2)C1=O`, the survivor count under setting [2] is recorded as 3 of 3.
With `CCC(C)CC(C)C1=NC(C)(C)CC(C)O1` (configuration not stated), the survivor count under setting [5] is recorded as 0 of 6.
For `S=C1NCCO1`, under “T/C endpoint: mean survival time, dose: 400.0 mg/kg/injection, schedule: Q01DX009 (ip), vehicle: saline with Tween-80”, the survivor count is 3 of 6.
As for `O=C1/C(=C/C2CCC3CCCCC3[N-]2)N2CCC1CC2.[Cl][Co][Cl]` (configuration not stated), the survivor count by setting is: (T/C endpoint: mean survival time, dose: 75.0 mg/kg/injection, schedule: Q01DX001 (ip), vehicle: saline) 2 of 6; (T/C endpoint: mean survival time, dose: 150.0 mg/kg/injection, schedule: Q01DX001 (ip), vehicle: saline) 0 of 6; (T/C endpoint: mean survival time, dose: 300.0 mg/kg/injection, schedule: Q01DX001 (ip), vehicle: saline) 1 of 6.
As for `ONc1ccccn1`, the survivor count (T/C endpoint: mean survival time, dose: 200.0 mg/kg/injection, schedule: Q04DX003 (ip), vehicle: saline) is on record as 2 of 6.
Consider `CC(=O)c1cc(C)c[n+](C2OC(COC(=O)c3ccccc3)C(OC(=O)c3ccccc3)C2O)c1` (configuration not stated), for which, where the note is “T/C endpoint: mean survival time, dose: 200.0 mg/kg/injection, schedule: Q01DX005 (ip), vehicle: water”, the survivor count is 0 of 6.
`COc1ccccc1-n1c(O)c(N=Nc2ccccc2)c(=O)n(-c2ccccc2OC)c1=S`: under setting [5], the survivor count is listed as 2 of 6.
For the molecule `N=C(N)c1ccc(Nc2ccc(-c3cc4ccc(C(=N)N)cc4[nH]3)cc2)cc1`, the T/C was 141 % of control (T/C endpoint: median survival time, dose: 1.87 mg/kg/injection, schedule: Q01DX005 (ip), vehicle: saline) and 137 % of control (T/C endpoint: median survival time, dose: 2.7 mg/kg/injection, schedule: Q01DX005 (ip), vehicle: saline). The survivor count (T/C endpoint: median survival time, dose: 15.0 mg/kg/injection, schedule: Q01DX005 (ip), vehicle: saline) is reported as 6 of 6 and the survivor count (T/C endpoint: median survival time, dose: 30.0 mg/kg/injection, schedule: Q01DX005 (ip), vehicle: saline) was 3 of 6.
Consider `CCCCCCCCCCCCCCCC(=O)N(C/C=C/CN(C(=O)CCCCCCCCCCCCCCC)C(C)CCCN(CC)CC)C(C)CCCN(CC)CC` (configuration not stated), for which the survivor count reads like this: under setting [6], 1 of 6; under setting [7], 0 of 6; under setting [8], 0 of 6.
In the case of `CS(=O)(=O)c1cc([N+](=O)[O-])cc([N+](=O)[O-])c1Cl`, the survivor count by setting is: (T/C endpoint: mean survival time, dose: 20.0 mg/kg/injection, schedule: Q04DX003 (ip), vehicle: saline with Tween-80) 2 of 6; under setting [1], 0 of 6; under setting [2], 0 of 6; under setting [3], 0 of 6.
As to `Cc1ccnc(N)c1N`, the survivor count by setting is: under setting [6], 3 of 6; under setting [7], 0 of 6; under setting [8], 0 of 6.

The values are drawn from PubChem BioAssay AID256 (DTP/NCI, 2004).
